Results deposited as PubChem BioAssay AID686943 (Drosophila RNAi Screening Center, 2013).
The deposit covers about 23,000 reagents; below is a random part of those with a known target gene and a result. 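Extra replicates exist only for a retested subset of genes; insulin dose and duration not given; both raised and lowered dpERK matter.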 Not all columns of the deposit are shown. Reagent sequences are not shown. Not stated in the record: the amount of reagent, the time to read-out.

Screen: 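Search across the genome for regulators of signalling from receptor tyrosine kinase to ERK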 (primary screen)
System: Drosophila S2R+ haemocyte-like cells expressing YFP-tagged ERK (Rolled)
Reagent: long dsRNA against Drosophila genes
Treatment: insulin stimulation versus unstimulated cells; dose and duration not given
Read-out: 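Antibody staining for doubly phosphorylated ERK divided by ERK-YFP signal, as plate z-scores, in insulin-treated and untreated cells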
Direction: replicate 1, z-score of dpERK with insulin: higher = more active ERK per ERK-YFP after insulin

{"target": "Zaf1", "DRSC id": "DRSC16121", "replicate 1, z-score of dpERK with insulin": 0.83}
{"target": "Flo2", "DRSC id": "DRSC19062", "replicate 1, z-score of dpERK with insulin": -0.14}
{"target": "Flo2", "DRSC id": "DRSC20244", "replicate 1, z-score of dpERK with insulin": -0.19}
{"target": "Not10", "DRSC id": "DRSC14129", "replicate 1, z-score of dpERK with insulin": -0.68}
{"target": "eEF1alpha2", "DRSC id": "DRSC14079", "replicate 1, z-score of dpERK with insulin": -0.26}
{"target": "eEF1alpha2", "DRSC id": "DRSC16658", "replicate 1, z-score of dpERK with insulin": 1.18}

Laid out differently: entries from further up.
eEF1alpha2 [DRSC14079] — replicate 1, z-score of dpERK with insulin: -0.26
eEF1alpha2 [DRSC16658] — replicate 1, z-score of dpERK with insulin: 1.18

Next reagents:
{"target": "tws", "DRSC id": "DRSC12767", "replicate 1, z-score of dpERK with insulin": 1.42}
{"target": "tws", "DRSC id": "DRSC17092", "replicate 1, z-score of dpERK with insulin": -1.9}
{"target": "CG13895", "DRSC id": "DRSC08365", "replicate 1, z-score of dpERK with insulin": 0.03}
{"target": "CG5478", "DRSC id": "DRSC15814", "replicate 1, z-score of dpERK with insulin": 0.14}
{"target": "CG4455", "DRSC id": "DRSC01983", "replicate 1, z-score of dpERK with insulin": -0.6}
{"target": "CG4455", "DRSC id": "DRSC21684", "replicate 1, z-score of dpERK with insulin": 0.17}
